# Experimental data published in patent US7932259B2, “Pyrrolo[2,3-d]pyrimidine derivatives substituted with a cyclic amino group” (Taisho Pharmaceutical Co., Ltd., priority 2002, dated 2011).
# Structures can show the parent of a compound that is named as a salt. Some of these results come from one statement about several compounds together.
# Target: T1, CRF receptor (Macaca mulatta, UniProt Q76LL8)
# T1 sequence (Q76LL8 24-415): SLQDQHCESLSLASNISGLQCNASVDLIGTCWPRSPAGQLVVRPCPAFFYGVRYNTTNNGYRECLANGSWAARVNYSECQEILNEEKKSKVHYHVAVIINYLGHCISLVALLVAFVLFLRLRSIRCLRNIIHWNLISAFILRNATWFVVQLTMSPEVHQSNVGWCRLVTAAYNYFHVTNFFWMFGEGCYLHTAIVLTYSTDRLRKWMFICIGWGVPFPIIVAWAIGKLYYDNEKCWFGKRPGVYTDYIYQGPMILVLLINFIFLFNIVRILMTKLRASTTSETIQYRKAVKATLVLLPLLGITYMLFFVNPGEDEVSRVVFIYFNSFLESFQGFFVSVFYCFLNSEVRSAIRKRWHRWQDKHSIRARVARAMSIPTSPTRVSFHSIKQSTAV
# Test: CRF receptor binding test
# Details: read-out: IC50 (concentration of the test drug at which binding of 125I-CRF is inhibited by 50%); monkey amygdala membranes; 125I-CRF 0.2 nM; 25° C. for 2 hours
row,SMILES,IC50 [nM]
1,"Cc1nc(N2CCC(CO)CC2)c2c(C)cn(-c3c(C)cc(Br)cc3C)c2n1 [Compound 1-054, {1-[7-(4-bromo-2,6-dimethylphenyl)-2,5-dimethyl-7H-pyrrolo[2,3-d]pyrimidin-4-yl]piperidin-4-yl}methanol hydrochloride]",≤ 50
2,"Cc1nc(N2CCC(CCO)CC2)c2c(C)cn(-c3c(C)cc(Br)cc3C)c2n1 [Compound 1-074, 2-{1-[7-(4-bromo-2,6-dimethylphenyl)-2,5-dimethyl-7H-pyrrolo[2,3-d]pyrimidin-4-yl]piperidin-4-yl}ethanol hydrochloride]",≤ 50
3,Cc1nc(N2C3CCC2CC(C#N)C3)c2c(C)c(C)n(-c3c(C)cc(Br)cc3C)c2n1 (stereo not drawn) [Compound 1-172],≤ 50
4,Cc1nc(N2C3CCC2CC(C#N)C3)c2c(C)cn(-c3c(C)cc(Br)cc3C)c2n1 (stereo not drawn) [Compound 1-173],≤ 50
5,Cc1nc(N2C3CCC2CC(CO)C3)c2c(C)c(C)n(-c3c(C)cc(Br)cc3C)c2n1 (stereo not drawn) [Compound 1-319],≤ 50
6,Cc1nc(N2C3CCC2CC(CO)C3)c2c(C)cn(-c3c(C)cc(Br)cc3C)c2n1 (stereo not drawn) [Compound 1-320],≤ 50
7,Cc1nc(N2C3CCC2CC(CC#N)C3)c2c(C)c(C)n(-c3c(C)cc(Br)cc3C)c2n1 (stereo not drawn) [Compound 1-332],≤ 50
8,Cc1nc(N2C3CCC2CC(CC#N)C3)c2c(C)cn(-c3c(C)cc(Br)cc3C)c2n1 (stereo not drawn) [Compound 1-333],≤ 50
9,"Cc1cc(N2CCC(CO)CC2)c2c(C)cn(-c3c(C)cc(Cl)cc3C)c2n1 [Compound 2-019, {1-[1-(4-chloro-2,6-dimethylphenyl)-3,6-dimethyl-1H-pyrrolo[2,3-b]pyridin-4-yl]piperidin-4-yl}methanol hydrochloride]",≤ 50
